This note sets out measurements from PubChem BioAssay AID330 (DTP/NCI, 2004).

The list is a part of this screen's results and no random one: it is rich in T/C values a quarter to a half above the control, in often repeated tests (any T/C) and in doses without a T/C. Further doses and runs are listed elsewhere. T/C is the treated group as % of the vehicle group. Some entries give survivors of the animals treated and no T/C: the source holds a T/C of zero for them, seemingly a mark for toxic or unscored doses. Some survivor counts are full or nearly so, which does not show that the dose was tolerated: survival well below the control is almost never listed, so the zero probably covers shortened survival too. Survivors were counted at the toxicity check, usually on the fifth day, unless a day is given; later deaths do not show. Schedule codes are those of the source, read here as Q, the interval in days (D) or hours (H), X, the number of doses. Some entries were tested several times; the values are given in rising order. For survival time, the PubChem record calls one and a half times the control and up active, and a quarter to a half above the control has no call in these data; cut-offs in other NCI protocols can differ. Some T/C values carry the count of animals alive at the toxicity check (mostly the fifth day); where none is given, no animal had died by that day.

The assay relates to P388 leukemia ip, CD2F1 mice, survival T/C. The assay can be described thus: NCI In Vivo Anticancer Drug Screen. Data for tumor model P388 Leukemia (intraperitoneal) in CD2F1 (CDF1) mice. The conditions noted are these: T/C endpoint: median survival time, higher T/C = longer survival.
Where [1] appears, read: dose: 100.0 mg/kg/injection, schedule: Q01DX005 (ip), vehicle: saline with Tween-80.
Setting [2] is: dose: 200.0 mg/kg/injection, schedule: Q01DX005 (ip), vehicle: saline with Tween-80.
The mark [3] stands for this setting: dose: 200.0 mg/kg/injection, schedule: Q01DX009 (ip), vehicle: saline.
Where [4] appears, read: dose: 200.0 mg/kg/injection, schedule: Q01DX005 (ip), vehicle: Klucel (hydroxypropylcellulose) (HPC).

Turning to `CCN(CC)CCCC(C)NC(=O)Nc1cc(OC)cc2cccnc12` (centres undefined), the survivor count was 3 of 5 (dose: 100.0 mg/kg/injection, schedule: Q01DX005 (ip), vehicle: saline) and 0 of 5 (dose: 200.0 mg/kg/injection, schedule: Q01DX005 (ip), vehicle: saline).

With `CNC(=O)OCc1c(COC(=O)NC)c(-c2ccc(Cl)c(Cl)c2)n2c1SCC2`, the T/C by setting is: (dose: 12.5 mg/kg/injection, schedule: Q01DX005 (ip), vehicle: saline with Tween-80) 126 % of control; (dose: 25.0 mg/kg/injection, schedule: Q01DX005 (ip), vehicle: saline with Tween-80) 134 and 137 % of control. Also, the survivor count under setting [1] is 5 of 6 and 6 of 6; the survivor count under setting [2] is recorded as 3 of 6.

On to `[N-]=[N+]=C1N=CN=C1c1ncn[nH]1`, for which the T/C was 126 % of control (dose: 3.12 mg/kg/injection, schedule: Q01DX009 (ip), vehicle: Klucel (hydroxypropylcellulose) (HPC)); 132 and 136 % of control (dose: 6.25 mg/kg/injection, schedule: Q01DX009 (ip), vehicle: Klucel (hydroxypropylcellulose) (HPC)); 136 % of control (dose: 12.5 mg/kg/injection, schedule: Q01DX009 (ip), vehicle: Klucel (hydroxypropylcellulose) (HPC)); 136 % of control [5 of 6 alive] (dose: 25.0 mg/kg/injection, schedule: Q01DX009 (ip), vehicle: Klucel (hydroxypropylcellulose) (HPC)); 136 % of control [5 of 6 alive] (dose: 50.0 mg/kg/injection, schedule: Q01DX009 (ip), vehicle: Klucel (hydroxypropylcellulose) (HPC)). The survivor count (dose: 100.0 mg/kg/injection, schedule: Q01DX009 (ip), vehicle: Klucel (hydroxypropylcellulose) (HPC)) was 0 of 6 and 1 of 6.

Take `COc1cc(/C=C/[N+](=O)[O-])cc(Br)c1O`: the survivor count (dose: 240.0 mg/kg/injection, schedule: Q01DX005 (ip), vehicle: saline with Tween-80) was 0 of 6.

In the case of `CN(N=O)C(=O)Nc1c[nH]c(=O)[nH]c1=O`, the survivor count reads like this: (dose: 100.0 mg/kg/injection, schedule: Q01DX009 (ip), vehicle: saline sonified) 5 of 6; (dose: 200.0 mg/kg/injection, schedule: Q04DX003 (ip), vehicle: saline with Tween-80) 4 of 6.

Consider `S=C(NNc1nnc(-c2ccccc2)c(-c2ccccc2)n1)NC1CCCCC1`, for which the survivor count under setting [2] was 6 of 6.

In the case of `C[CH2][Sn]([Br])([c]1ccccc1)[c]1ccccc1CN(C)C` (centres undefined), under setting [3], the survivor count is 5 of 6.

With `CC1=CC(C)C/C=C/C2C3OC3(C)C(C)C3C(Cc4c[nH]c5ccccc45)NC(=O)C23C(=O)C=CC(=O)C1O` (centres undefined), the T/C runs as follows: (dose: 4.0 mg/kg/injection, schedule: Q01DX005 (ip), vehicle: Klucel (hydroxypropylcellulose) (HPC)) 126 % of control; (dose: 8.0 mg/kg/injection, schedule: Q01DX005 (ip), vehicle: Klucel (hydroxypropylcellulose) (HPC)) 126 % of control.

For the compound `CC(C)(C)c1ccc(O)c(O)c1`, the survivor count by setting is: (dose: 100.0 mg/kg/injection, schedule: Q01DX009 (ip), vehicle: saline) 2 of 6 and 5 of 6; under setting [3], 0 of 6; (dose: 400.0 mg/kg/injection, schedule: Q01DX009 (ip), vehicle: saline) 0 of 6; (dose: 600.0 mg/kg/injection, schedule: Q01DX009 (ip), vehicle: saline) 0 of 6.

For `CN(C)N=Nc1ccc(C(=O)NC(Cc2ccccc2)C(=O)O)cc1` (centres undefined), the survivor count (dose: 100.0 mg/kg/injection, schedule: Q01DX005 (ip), vehicle: Klucel (hydroxypropylcellulose) (HPC)) is 6 of 6.

Take `c1ccc([C@H]2N[C@@H]2c2ccccn2)cc1`: under setting [2], the survivor count was 3 of 6.

For the compound `CC(=O)Nc1cc(NC(C)=O)cc(N(CCCl)CCCl)c1`, the T/C was 128 and 129 % of control (dose: 6.25 mg/kg/injection, schedule: Q01DX009 (ip), vehicle: water); 141 % of control (dose: 11.0 mg/kg/injection, schedule: Q01DX009 (ip), vehicle: water); 142 % of control (dose: 12.5 mg/kg/injection, schedule: Q01DX009 (ip), vehicle: water). In addition, the survivor count (dose: 100.0 mg/kg/injection, schedule: Q01DX009 (ip), vehicle: water) is reported as 6 of 6.

In the case of `CC1(C)N=C(N)N=C(N)N1c1ccc(C(N)=O)cc1`, the survivor count under setting [4] is 0 of 6.

Consider `CCN(CC)CCOC(=O)C(OCC(C)C)(c1ccccc1)c1ccccc1`, for which the survivor count under setting [4] is reported as 0 of 6.

Consider `CCCC(=O)NC1=C(N2CC2)C(=O)C(NC(=O)CCC)=C(N2CC2)C1=O`, for which the T/C runs as follows: (dose: 0.29 mg/kg/injection, schedule: Q01DX009 (ip), vehicle: saline with Tween-80) 128 % of control; (dose: 0.3 mg/kg/injection, schedule: Q01DX009 (ip), vehicle: saline with Tween-80) 125 % of control; (dose: 0.66 mg/kg/injection, schedule: Q01DX009 (ip), vehicle: saline with Tween-80) 129 % of control; (dose: 0.78 mg/kg/injection, schedule: Q01DX009 (ip), vehicle: saline with Tween-80) 136 % of control; (dose: 1.25 mg/kg/injection, schedule: Q04DX003 (ip), vehicle: saline with Tween-80) 127 % of control; (dose: 10.0 mg/kg/injection, schedule: Q04DX003 (ip), vehicle: saline with Tween-80) 145 % of control. For the same compound, the survivor count (dose: 12.5 mg/kg/injection, schedule: Q01DX009 (ip), vehicle: saline with Tween-80) was 6 of 6.

Turning to `Cc1ccccc1OC(=O)Nc1ccc(C(=O)O)c(O)c1`, the survivor count (dose: 400.0 mg/kg/injection, schedule: Q01DX001 (ip), vehicle: saline with Tween-80) was 2 of 6.

With `Cn1c(=O)c2c(ncn2CCNC(c2ccccc2)c2cccc(Cl)c2)n(C)c1=O` (centres undefined), the survivor count is recorded as 0 of 5 (dose: 50.0 mg/kg/injection, schedule: Q01DX005 (ip), vehicle: other); 1 of 5 (dose: 100.0 mg/kg/injection, schedule: Q01DX005 (ip), vehicle: other); 0 of 5 (dose: 200.0 mg/kg/injection, schedule: Q01DX005 (ip), vehicle: other).

As to `C=CCN(CC=C)c1cc(Cl)nnc1Cl`, the survivor count (dose: 400.0 mg/kg/injection, schedule: Q01DX009 (ip), vehicle: other) is listed as 2 of 6.

As for `Cc1c(C)c2ccc(OCCCN3CCN(Cc4ccc(Cl)cc4)CC3)cc2oc1=O`, for the setting “dose: 200.0 mg/kg/injection, schedule: Q01DX009 (ip), vehicle: suspension in saline”, the survivor count is listed as 2 of 6.

`O=C1CN(CCN2CCCCC2)CC(=O)N2Cc3ccccc3CN12`: the survivor count under setting [1] is 0 of 5 and the survivor count under setting [2] is 0 of 5.

As for `O=S(=O)(c1ccccc1)N1CN2CCN(C2)C1`, the T/C (dose: 100.0 mg/kg/injection, schedule: Q01DX009 (ip), vehicle: saline with Tween-80) is 139 % of control [5 of 6 alive].

On to `Cc1cc2c3ccccc3[nH]c(=O)n2n1`, for which the survivor count (dose: 400.0 mg/kg/injection, schedule: Q01DX009 (ip), vehicle: saline with Tween-80) was 5 of 6.

`CN(C)c1ccc2[nH]cc(C(=O)O)c(=O)c2c1`: the survivor count reads like this: (dose: 60.0 mg/kg/injection, schedule: Q01DX005 (ip), vehicle: Klucel (hydroxypropylcellulose) (HPC)) 3 of 6; (dose: 120.0 mg/kg/injection, schedule: Q01DX005 (ip), vehicle: Klucel (hydroxypropylcellulose) (HPC)) 5 of 6; (dose: 240.0 mg/kg/injection, schedule: Q01DX005 (ip), vehicle: Klucel (hydroxypropylcellulose) (HPC)) 3 of 6.

Consider `CCCCCCCCCCCCCCCc1c(NC(C)(CC)[P+](=O)O)c(=O)n(C)n1C` (centres undefined), for which the survivor count reads like this: (dose: 25.0 mg/kg/injection, schedule: Q01DX009 (ip), vehicle: saline) 1 of 6; (dose: 50.0 mg/kg/injection, schedule: Q01DX009 (ip), vehicle: saline) 5 of 6; under setting [3], 1 of 6.

Turning to `C=C1C(=O)OCC1C(=O)O` (centres undefined), the T/C is 130 % of control (dose: 8.0 mg/kg/injection, schedule: Q01DX009 (ip), vehicle: saline); 130 % of control (dose: 16.0 mg/kg/injection, schedule: Q01DX009 (ip), vehicle: saline); 125 and 142 % of control (dose: 32.0 mg/kg/injection, schedule: Q01DX009 (ip), vehicle: saline); 126 % of control (dose: 64.0 mg/kg/injection, schedule: Q01DX009 (ip), vehicle: saline). Also, under “dose: 128.0 mg/kg/injection, schedule: Q01DX009 (ip), vehicle: saline”, the survivor count is 3 of 6.
